Data taken from paper PMC7819943, “Rice protein-binding microarrays: a tool to detect cis-acting elements near promoter regions in rice”.
The other results are listed elsewhere or left out.

The chains behind the UniProt entries cited, without tags or fusion partners.
UniProt Q0JBA9, entry or part of it: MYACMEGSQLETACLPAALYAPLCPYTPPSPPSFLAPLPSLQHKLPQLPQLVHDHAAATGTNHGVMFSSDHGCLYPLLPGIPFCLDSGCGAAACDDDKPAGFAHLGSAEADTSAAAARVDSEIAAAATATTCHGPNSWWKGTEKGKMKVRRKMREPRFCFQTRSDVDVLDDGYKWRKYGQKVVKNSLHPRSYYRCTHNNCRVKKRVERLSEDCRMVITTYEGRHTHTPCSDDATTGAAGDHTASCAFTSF

Target: OsWRKY34 (Oryza sativa, UniProt Q0JBA9 1-250)
Assay: protein-binding microarray (RPBM); PBS, 2% BSA, 51.3 ng/ul salmon testes DNA, 50 uM zinc acetate, 200 nM TF, 25 C, 1 h; high values mean tight binding
Conditions: protein: recombinant; tags: N-terminal polyhistidine and DsRed monomer fusion (pET32a); label: CyDye5-dUTP incorporated in the synthesized complementary strand; 3' TTTTT single-stranded linker to array surface; dsDNA, one strand shown
Method in brief: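 Ni–NTA purification followed expression in E. coli BL21-CodonPlus of transcription factors fused N-terminally to a polyhistidine tag and DsRed. At 200 nM in PBS with 2% BSA, salmon testes DNA and 50 µM zinc acetate, the protein was incubated for 1 h at 25 °C with a custom Agilent array that had been primer-extended with Cy5-dUTP and blocked with 2% BSA. After washing, the array was read on an Axon 4000B scanner. The binding signal is per-feature fluorescence intensity in arbitrary units.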

Sequence	binding signal
CGCTGTCGATCGCCGTCTCCGGCTGGCTCACCTCCGCCAACGGAGTCACCTAGTGCAG	9500 fluorescence intensity (a.u.)
AGTGGTGATCGCCGCGGTTGGGTTTCTTGGATTGGGCTGTCGGAGTCACCTAGTGCAG	8720 fluorescence intensity (a.u.)
TTTAAAAAAGTCAACGGCATAAAACATTTAGGACGATTGTCGGAGTCACCTAGTGCAG	9390 fluorescence intensity (a.u.)
AGGGAAGGGATGGTGAGGACAGGCACATGATGGGAAAAATCGGAGTCACCTAGTGCAG	9380 fluorescence intensity (a.u.)
CCTAGCTCCATCTTCGTCCTCGTCCACACAAAATGTTTTCCGGAGTCACCTAGTGCAG	9470 fluorescence intensity (a.u.)
TATGGATTTAATCATGGTTTCTTTGTCTTTGTTTCTTGTTCGGAGTCACCTAGTGCAG	8210 fluorescence intensity (a.u.)
CTTGCCTGTACTGAAGGTTAAAATTTTCTCCTCTTTTTTGCGGAGTCACCTAGTGCAG	10700 fluorescence intensity (a.u.)
TCCTTGGGTATAATCAATTCCCCTTTTCCACTCGTAATTGCGGAGTCACCTAGTGCAG	8280 fluorescence intensity (a.u.)
TAAATTCCACTCCAAAATTTTTCACCCTGTCACATCAGATCGGAGTCACCTAGTGCAG	8040 fluorescence intensity (a.u.)
GTTTGTTTTGACCCAGCCACATCCCACTCCCTGAAAAAAACGGAGTCACCTAGTGCAG	8130 fluorescence intensity (a.u.)
TTCATTAGTCAGGATATATCATTTGTACAAACAACTTTGTCGGAGTCACCTAGTGCAG	8580 fluorescence intensity (a.u.)
AATTAGCTGTTGGACACCCGCGGGATTATTTTATCATATCCGGAGTCACCTAGTGCAG	9050 fluorescence intensity (a.u.)
TAGCCGCTAATCCATGTTTACCTGTCTAAATTTGTTCATCCGGAGTCACCTAGTGCAG	9030 fluorescence intensity (a.u.)
GTTAGTGCCTAGCCCAGTTTGACCGAGTAAAATGAGACATCGGAGTCACCTAGTGCAG	8820 fluorescence intensity (a.u.)
GCAGTATGTGCTAATGTGCATCAGTTTTTCTTCTACTATACGGAGTCACCTAGTGCAG	8740 fluorescence intensity (a.u.)
TTTGTTCTCCTTTTTTTTTTGGTGATTTTGTTGTTTCTTGCGGAGTCACCTAGTGCAG	9980 fluorescence intensity (a.u.)
TGTCACATTCGTCTCCGGTCCGTACGTTGCTGTATTTTAGCGGAGTCACCTAGTGCAG	17100 fluorescence intensity (a.u.)
GTTTTGCATGTCCACTTTTAATCTTATCTTCAGAAGATTGCGGAGTCACCTAGTGCAG	10000 fluorescence intensity (a.u.)
ACTAGATCTTCGTTCCACGTGGCATTGACGTGACACTCACCGGAGTCACCTAGTGCAG	8200 fluorescence intensity (a.u.)
TCCTACCTGTCATACACACACAGTGTCTTGAAGTCCGTGTCGGAGTCACCTAGTGCAG	9820 fluorescence intensity (a.u.)
TAGCTAGCAATCTCCTGTTGCAACATGTGTCGTTCAATTGCGGAGTCACCTAGTGCAG	8690 fluorescence intensity (a.u.)

Sequence	binding signal
CCAGCCATCCGCGCAACGAACCTAAGCCGTCCGATTCTCCCGGAGTCACCTAGTGCAG	8670 fluorescence intensity (a.u.)
ATTTTGAACAATACCATTTTCAAACACGTTCATTTAGTTTCGGAGTCACCTAGTGCAG	9800 fluorescence intensity (a.u.)
AGAACACTGTGTCCCTTACGTGGCGACCTAATTTACCGTCCGGAGTCACCTAGTGCAG	8500 fluorescence intensity (a.u.)
AGCCACCATCACTCCACCTGCTGAAAGCACTGCCCGAGTACGGAGTCACCTAGTGCAG	9750 fluorescence intensity (a.u.)
CTAAAGTTAACGCTCGTTCTGGTATTTACGGCTATTTTTTCGGAGTCACCTAGTGCAG	9080 fluorescence intensity (a.u.)
TCGCGTGTATCACCTTTTCCCCATTTTTTTTAATTCCTATCGGAGTCACCTAGTGCAG	9950 fluorescence intensity (a.u.)
TGACCCGCCTCGCGCTCGCCTGCCACCACCGCCACCGCCACGGAGTCACCTAGTGCAG	8400 fluorescence intensity (a.u.)
GAAAATCCTCGATGCATTCAATCGGTTCCTCGGGGAAGAACGGAGTCACCTAGTGCAG	8560 fluorescence intensity (a.u.)
ACGCGCTCGCGCTGCTCCTCCTTCTCGCAGCAGATATACCCGGAGTCACCTAGTGCAG	8410 fluorescence intensity (a.u.)
ACATCTCTGTCTGTCTCCGCTTTAAAGCTGTCACCTTTTCCGGAGTCACCTAGTGCAG	9240 fluorescence intensity (a.u.)
ACGGCCAGTGACCCAGTTGTACATATACCCAGCGCACACTCGGAGTCACCTAGTGCAG	8700 fluorescence intensity (a.u.)
TCAATCGGCTGCACTTAATTTACTGCAGTTCGTCCTATTCCGGAGTCACCTAGTGCAG	9160 fluorescence intensity (a.u.)
CCGCCAGCGCACCACGCACCCCGCGGCCCGCGCTCGTCGCCGGAGTCACCTAGTGCAG	8550 fluorescence intensity (a.u.)
CGTCGCCGAGCCGCCTCCGCCTCACCGTGCCGACCACCACCGGAGTCACCTAGTGCAG	8940 fluorescence intensity (a.u.)
CCACAGTCTACAGCATCTCTGCTTTGCAGCTGCAGCTTAACGGAGTCACCTAGTGCAG	8780 fluorescence intensity (a.u.)
CTTTTCTCCACGTCGCTGCAGCCGTGTCCTCATCGACCTTCGGAGTCACCTAGTGCAG	8700 ± 537 fluorescence intensity (a.u.)
GCACCACTTTTCACCTTTTCTTCTCCTCCTCCATTTCCATCGGAGTCACCTAGTGCAG	8260 fluorescence intensity (a.u.)
CCCCGGCTTTGACTCACAGACTCCACGTCTCCACCCCGAACGGAGTCACCTAGTGCAG	9870 fluorescence intensity (a.u.)
GTACCCATCAATAGTAAGTCACCCACATTTGTACTTTGTTCGGAGTCACCTAGTGCAG	8960 fluorescence intensity (a.u.)
AGGTGGTGGGCTGTGGGTACGGGCGGCGGCGGCGGCGATGCGGAGTCACCTAGTGCAG	8960 fluorescence intensity (a.u.)
GTCCAAATTATCTCTCTCATTTTCTTCTCTCATTAATCCACGGAGTCACCTAGTGCAG	10100 fluorescence intensity (a.u.)

Looked up above.
In binding signal, TTTGTTCTCCTTTTTTTTTTGGTGATTTTGTTGTTTCTTGCGGAGTCACCTAGTGCAG has 9980 fluorescence intensity (a.u.)
In binding signal, AGGTGGTGGGCTGTGGGTACGGGCGGCGGCGGCGGCGATGCGGAGTCACCTAGTGCAG has 8960 fluorescence intensity (a.u.)
In binding signal, GTACCCATCAATAGTAAGTCACCCACATTTGTACTTTGTTCGGAGTCACCTAGTGCAG has 8960 fluorescence intensity (a.u.)
